Experimental data as given in the supplement of paper PMC12823440, “Inhibitors supercharge kinase turnover through native proteolytic circuits” (Nature, 2025).
Where a name gives a salt, the structure may show the parent alone. The list shows a part of the results. The calls rarely recur for the same compound in another form.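 Kinases, fused to nanoluciferase, were expressed in K562 cells; luminescence was measured every 4 h from 2 to 18 h as percent of control (DMSO = 100%, positive control = 0%). A time point is decreased if signal falls significantly (2 sigma). Hits were called by the authors by a rule that is not shown; the count of time points alone does not decide it.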

Protein sequences, listed by entry. Tags and fused reporters are not part of them. Lines headed by an entry give the natural chain unless they say otherwise; changes in a name come on top.
UniProt O75460: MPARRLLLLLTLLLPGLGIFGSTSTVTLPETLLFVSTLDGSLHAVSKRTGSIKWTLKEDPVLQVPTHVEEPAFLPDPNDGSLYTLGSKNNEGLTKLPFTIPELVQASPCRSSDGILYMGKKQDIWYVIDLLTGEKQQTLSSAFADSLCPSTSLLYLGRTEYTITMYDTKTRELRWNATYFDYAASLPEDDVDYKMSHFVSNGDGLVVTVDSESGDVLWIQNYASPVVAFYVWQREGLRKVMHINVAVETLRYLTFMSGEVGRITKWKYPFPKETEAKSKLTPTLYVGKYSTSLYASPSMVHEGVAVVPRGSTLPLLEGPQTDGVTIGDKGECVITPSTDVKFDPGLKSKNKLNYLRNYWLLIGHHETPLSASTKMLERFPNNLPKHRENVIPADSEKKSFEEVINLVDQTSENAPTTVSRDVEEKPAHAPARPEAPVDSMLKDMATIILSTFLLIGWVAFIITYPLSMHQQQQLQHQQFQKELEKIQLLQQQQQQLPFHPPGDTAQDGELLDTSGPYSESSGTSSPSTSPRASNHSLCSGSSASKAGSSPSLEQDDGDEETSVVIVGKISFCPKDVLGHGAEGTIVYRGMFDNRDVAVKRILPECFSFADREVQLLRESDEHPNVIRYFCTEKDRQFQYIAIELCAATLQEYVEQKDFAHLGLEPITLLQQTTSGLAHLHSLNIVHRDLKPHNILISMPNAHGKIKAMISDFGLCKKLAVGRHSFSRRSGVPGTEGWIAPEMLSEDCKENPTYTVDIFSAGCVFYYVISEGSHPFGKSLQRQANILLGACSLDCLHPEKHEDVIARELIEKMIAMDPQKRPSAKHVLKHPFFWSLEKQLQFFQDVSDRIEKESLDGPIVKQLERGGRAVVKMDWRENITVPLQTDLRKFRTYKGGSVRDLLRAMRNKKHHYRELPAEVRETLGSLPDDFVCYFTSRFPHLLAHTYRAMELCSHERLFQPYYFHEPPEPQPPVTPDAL
UniProt P11362, whole entry, looked up: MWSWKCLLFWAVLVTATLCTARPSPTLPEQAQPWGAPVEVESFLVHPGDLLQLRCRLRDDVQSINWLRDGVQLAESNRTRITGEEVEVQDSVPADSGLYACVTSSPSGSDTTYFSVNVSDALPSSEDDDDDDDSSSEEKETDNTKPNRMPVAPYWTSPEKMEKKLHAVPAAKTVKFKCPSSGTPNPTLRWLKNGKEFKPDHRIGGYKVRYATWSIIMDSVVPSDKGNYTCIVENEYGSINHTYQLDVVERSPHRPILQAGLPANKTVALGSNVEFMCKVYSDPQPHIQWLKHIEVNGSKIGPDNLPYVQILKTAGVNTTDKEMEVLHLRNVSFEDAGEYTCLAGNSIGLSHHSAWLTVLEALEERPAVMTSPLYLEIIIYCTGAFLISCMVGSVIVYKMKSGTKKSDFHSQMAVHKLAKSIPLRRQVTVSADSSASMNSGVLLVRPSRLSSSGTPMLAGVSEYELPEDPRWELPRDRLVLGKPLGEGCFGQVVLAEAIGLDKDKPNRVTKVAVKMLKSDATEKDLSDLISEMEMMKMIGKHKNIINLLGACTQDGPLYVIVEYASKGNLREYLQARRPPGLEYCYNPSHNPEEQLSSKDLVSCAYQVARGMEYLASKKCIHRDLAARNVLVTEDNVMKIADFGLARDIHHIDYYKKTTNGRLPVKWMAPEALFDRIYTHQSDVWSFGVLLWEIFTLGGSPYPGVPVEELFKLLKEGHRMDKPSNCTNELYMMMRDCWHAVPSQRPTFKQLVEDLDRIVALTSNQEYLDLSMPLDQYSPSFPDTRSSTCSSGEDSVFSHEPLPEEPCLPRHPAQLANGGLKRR
UniProt P21802, whole entry, looked up: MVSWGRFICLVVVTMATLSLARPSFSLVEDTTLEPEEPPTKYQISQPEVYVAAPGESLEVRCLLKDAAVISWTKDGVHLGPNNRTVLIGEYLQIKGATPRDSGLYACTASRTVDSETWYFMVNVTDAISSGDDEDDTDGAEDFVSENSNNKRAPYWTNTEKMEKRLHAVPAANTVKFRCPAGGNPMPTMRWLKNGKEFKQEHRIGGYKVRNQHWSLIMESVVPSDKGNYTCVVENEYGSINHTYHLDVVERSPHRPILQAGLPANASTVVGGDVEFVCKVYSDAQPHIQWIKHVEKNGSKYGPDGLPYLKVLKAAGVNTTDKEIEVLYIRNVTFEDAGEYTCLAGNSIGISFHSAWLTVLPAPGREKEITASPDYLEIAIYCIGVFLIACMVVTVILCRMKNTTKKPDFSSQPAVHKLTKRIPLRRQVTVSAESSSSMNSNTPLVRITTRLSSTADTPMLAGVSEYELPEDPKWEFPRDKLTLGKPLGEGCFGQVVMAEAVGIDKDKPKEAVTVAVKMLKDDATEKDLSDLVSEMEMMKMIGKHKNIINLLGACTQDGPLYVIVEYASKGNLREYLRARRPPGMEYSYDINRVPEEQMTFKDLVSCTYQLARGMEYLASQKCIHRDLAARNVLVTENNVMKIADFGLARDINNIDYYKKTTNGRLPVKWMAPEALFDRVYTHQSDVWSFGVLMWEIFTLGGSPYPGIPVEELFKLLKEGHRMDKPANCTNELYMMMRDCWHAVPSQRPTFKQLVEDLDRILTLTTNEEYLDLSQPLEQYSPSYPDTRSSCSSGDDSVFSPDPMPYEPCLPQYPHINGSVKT
UniProt P22607, whole entry, looked up: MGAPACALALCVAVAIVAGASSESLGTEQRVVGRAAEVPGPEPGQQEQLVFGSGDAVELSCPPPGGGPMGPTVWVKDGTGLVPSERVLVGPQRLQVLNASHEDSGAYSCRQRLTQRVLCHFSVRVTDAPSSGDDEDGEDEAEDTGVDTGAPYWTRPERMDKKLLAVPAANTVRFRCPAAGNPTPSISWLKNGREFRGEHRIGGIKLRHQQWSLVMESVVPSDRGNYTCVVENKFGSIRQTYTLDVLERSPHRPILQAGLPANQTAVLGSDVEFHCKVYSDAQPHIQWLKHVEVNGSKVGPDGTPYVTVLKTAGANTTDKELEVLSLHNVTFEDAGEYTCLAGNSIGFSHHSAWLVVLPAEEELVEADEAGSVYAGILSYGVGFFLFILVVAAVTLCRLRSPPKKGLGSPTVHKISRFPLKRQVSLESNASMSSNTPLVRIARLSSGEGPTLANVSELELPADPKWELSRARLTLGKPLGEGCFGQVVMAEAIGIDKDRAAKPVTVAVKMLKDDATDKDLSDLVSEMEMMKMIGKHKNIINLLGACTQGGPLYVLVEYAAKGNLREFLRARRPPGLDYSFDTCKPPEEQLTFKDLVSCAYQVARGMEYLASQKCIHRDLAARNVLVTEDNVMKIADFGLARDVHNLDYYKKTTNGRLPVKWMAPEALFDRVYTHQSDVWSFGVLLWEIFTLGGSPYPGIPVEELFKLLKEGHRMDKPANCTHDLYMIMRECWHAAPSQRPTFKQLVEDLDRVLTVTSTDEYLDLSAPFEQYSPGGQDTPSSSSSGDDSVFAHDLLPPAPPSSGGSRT
UniProt P06241, whole entry, looked up: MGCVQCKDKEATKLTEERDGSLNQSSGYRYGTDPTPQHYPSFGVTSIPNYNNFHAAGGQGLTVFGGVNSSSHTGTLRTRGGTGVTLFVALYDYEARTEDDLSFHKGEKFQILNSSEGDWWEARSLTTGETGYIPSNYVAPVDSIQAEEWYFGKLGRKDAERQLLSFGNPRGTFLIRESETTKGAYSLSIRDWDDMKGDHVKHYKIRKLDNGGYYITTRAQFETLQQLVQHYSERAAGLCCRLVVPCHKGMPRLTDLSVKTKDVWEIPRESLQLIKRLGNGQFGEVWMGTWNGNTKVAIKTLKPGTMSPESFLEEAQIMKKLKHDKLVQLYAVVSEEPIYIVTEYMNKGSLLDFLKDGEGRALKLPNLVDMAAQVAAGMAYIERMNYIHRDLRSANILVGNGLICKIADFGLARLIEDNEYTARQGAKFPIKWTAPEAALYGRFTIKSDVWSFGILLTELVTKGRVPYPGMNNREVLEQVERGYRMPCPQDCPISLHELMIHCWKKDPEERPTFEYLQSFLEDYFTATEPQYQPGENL
UniProt P14616: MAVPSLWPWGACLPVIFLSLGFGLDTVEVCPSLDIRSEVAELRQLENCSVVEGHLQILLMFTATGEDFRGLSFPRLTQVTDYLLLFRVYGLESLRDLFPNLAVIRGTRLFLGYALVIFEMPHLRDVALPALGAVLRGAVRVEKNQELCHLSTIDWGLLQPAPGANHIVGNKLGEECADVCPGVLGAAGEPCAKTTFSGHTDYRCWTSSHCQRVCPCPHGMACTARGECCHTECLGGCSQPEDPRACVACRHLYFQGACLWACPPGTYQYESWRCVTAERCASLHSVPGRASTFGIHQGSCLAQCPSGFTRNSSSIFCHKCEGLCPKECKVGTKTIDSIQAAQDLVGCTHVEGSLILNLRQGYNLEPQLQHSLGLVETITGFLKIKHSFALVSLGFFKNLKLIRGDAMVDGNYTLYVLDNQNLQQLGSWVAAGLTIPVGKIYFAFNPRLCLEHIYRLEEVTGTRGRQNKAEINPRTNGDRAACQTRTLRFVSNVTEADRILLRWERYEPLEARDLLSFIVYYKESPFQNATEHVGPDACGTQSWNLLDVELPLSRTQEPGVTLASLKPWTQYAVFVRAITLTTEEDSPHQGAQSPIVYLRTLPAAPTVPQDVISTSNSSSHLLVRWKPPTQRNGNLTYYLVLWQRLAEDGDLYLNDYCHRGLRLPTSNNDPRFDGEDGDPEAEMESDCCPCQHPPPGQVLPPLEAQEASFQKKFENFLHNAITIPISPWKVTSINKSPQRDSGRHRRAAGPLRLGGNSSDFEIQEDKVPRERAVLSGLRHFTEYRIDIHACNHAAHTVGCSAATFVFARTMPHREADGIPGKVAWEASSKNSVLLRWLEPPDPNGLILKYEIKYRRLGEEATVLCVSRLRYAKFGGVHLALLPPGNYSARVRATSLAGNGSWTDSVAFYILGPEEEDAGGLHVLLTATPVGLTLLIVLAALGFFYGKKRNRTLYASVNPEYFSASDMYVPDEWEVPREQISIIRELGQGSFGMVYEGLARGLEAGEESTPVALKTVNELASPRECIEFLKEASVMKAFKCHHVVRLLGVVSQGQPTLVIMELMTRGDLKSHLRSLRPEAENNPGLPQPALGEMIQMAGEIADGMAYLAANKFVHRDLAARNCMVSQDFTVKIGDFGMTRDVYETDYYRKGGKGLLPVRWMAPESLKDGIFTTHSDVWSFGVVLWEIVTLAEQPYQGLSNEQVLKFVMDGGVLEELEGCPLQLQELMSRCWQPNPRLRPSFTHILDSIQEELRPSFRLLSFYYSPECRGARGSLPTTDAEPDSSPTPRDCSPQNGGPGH
UniProt Q9Y616: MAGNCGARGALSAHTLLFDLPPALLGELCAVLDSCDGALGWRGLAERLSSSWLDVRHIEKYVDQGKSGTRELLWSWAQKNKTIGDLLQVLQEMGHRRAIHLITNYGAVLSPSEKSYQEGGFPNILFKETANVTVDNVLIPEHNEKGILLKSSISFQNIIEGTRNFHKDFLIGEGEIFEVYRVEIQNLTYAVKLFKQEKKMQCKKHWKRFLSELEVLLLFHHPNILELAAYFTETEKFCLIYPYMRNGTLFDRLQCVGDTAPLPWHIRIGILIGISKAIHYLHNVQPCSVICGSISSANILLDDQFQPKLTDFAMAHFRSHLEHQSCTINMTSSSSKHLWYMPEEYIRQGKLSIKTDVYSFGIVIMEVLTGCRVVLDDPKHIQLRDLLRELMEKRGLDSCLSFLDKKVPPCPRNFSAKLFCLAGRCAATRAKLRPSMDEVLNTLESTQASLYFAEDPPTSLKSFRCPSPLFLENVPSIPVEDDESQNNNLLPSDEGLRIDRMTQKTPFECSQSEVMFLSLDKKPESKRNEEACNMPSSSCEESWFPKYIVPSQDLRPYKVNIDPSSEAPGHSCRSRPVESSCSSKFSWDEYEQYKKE
UniProt P06239: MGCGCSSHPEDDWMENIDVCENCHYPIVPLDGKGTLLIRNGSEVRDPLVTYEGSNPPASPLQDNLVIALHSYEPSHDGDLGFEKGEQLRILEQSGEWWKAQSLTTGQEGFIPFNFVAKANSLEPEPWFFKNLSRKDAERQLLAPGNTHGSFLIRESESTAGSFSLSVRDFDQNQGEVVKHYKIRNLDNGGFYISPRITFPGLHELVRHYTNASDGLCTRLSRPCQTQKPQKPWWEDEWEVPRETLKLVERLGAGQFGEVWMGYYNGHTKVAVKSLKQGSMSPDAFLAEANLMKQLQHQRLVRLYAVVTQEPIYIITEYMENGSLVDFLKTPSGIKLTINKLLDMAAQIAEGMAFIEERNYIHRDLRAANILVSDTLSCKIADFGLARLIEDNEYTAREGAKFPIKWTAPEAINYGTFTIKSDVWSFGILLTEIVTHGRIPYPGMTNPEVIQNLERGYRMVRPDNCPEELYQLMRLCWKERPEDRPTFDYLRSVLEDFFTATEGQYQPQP

What was measured:
Assay in all cases: kinase-Nluc reporter destabilization hit call (1 = scored as downregulated) (binary); higher = compound decreases kinase abundance
Conditions in all cases: K562, 2-18 h
ERN1 = ERN1 (UniProt O75460)
FGFR1 = FGFR1 (UniProt P11362)
FGFR2 = FGFR2 (UniProt P21802)
FGFR3 = FGFR3 (UniProt P22607)
FGR = FGR (UniProt P09769)
FLT3 = FLT3 (UniProt P36888)
FYN = FYN (UniProt P06241)
GSK3A = GSK3A (UniProt P49840)
HER2 = HER2 (UniProt P04626)
INSRR = INSRR (UniProt P14616)
IRAK3 = IRAK3 (UniProt Q9Y616)
JAK1 = JAK1 (UniProt P23458)
LCK = LCK (UniProt P06239)
LIMK1 = LIMK1 (UniProt P53667)
LIMK2 = LIMK2 (UniProt P53671)
LMTK2 = LMTK2 (UniProt Q8IWU2)
LYN = LYN (UniProt P07948)
MAP2K1 = MAP2K1 (UniProt Q02750)
MAP2K2 = MAP2K2 (UniProt P36507)
MAP4K2 = MAP4K2 (UniProt Q12851)

Measured: kinase-Nluc reporter destabilization hit call

COc1cc(/C=C/C(=O)O)ccc1O [Ferulic acid]
inactive: ERN1; 10 µM 0 | FGFR1; 10 µM 0 | FGFR2; 10 µM 0 | FGFR3; 10 µM 0 | FGR; 10 µM 0 | FLT3; 10 µM 0 | FYN; 10 µM 0 | GSK3A; 10 µM 0 | HER2; 10 µM 0 | INSRR; 10 µM 0 | IRAK3; 10 µM 0 | JAK1; 10 µM 0 | LCK; 10 µM 0 | LIMK1; 10 µM 0 | LIMK2; 10 µM 0 | LMTK2; 10 µM 0 | LYN; 10 µM 0 | MAP2K1; 10 µM 0 | MAP2K2; 10 µM 0 | MAP4K2; 10 µM 0

CNC(=O)c1ccccc1Nc1cc(Nc2ccc(N3CCOCC3)cc2OC)ncc1C(F)(F)F
inactive: ERN1; 10 µM 0 | FGFR1; 10 µM 0 | FGFR2; 10 µM 0 | FGFR3; 10 µM 0 | FGR; 10 µM 0 | FLT3; 10 µM 0 | FYN; 10 µM 0 | GSK3A; 10 µM 0 | HER2; 10 µM 0 | INSRR; 10 µM 0 | IRAK3; 10 µM 0 | JAK1; 10 µM 0 | LCK; 10 µM 0 | LIMK1; 10 µM 0 | LIMK2; 10 µM 0 | LMTK2; 10 µM 0 | LYN; 10 µM 0 | MAP2K1; 10 µM 0 | MAP2K2; 10 µM 0 | MAP4K2; 10 µM 0

CCc1nc(C(N)=O)c(Nc2ccc(N3CCC(N4CCN(C)CC4)CC3)c(OC)c2)nc1NC1CCOCC1 [Gilteritinib hemifumarate]
inactive: ERN1; 2 µM 0 | FGFR1; 2 µM 0 | FGFR2; 2 µM 0 | FGFR3; 2 µM 0 | FGR; 2 µM 0 | FLT3; 2 µM 0 | FYN; 2 µM 0 | GSK3A; 2 µM 0 | HER2; 2 µM 0 | INSRR; 2 µM 0 | IRAK3; 2 µM 0 | JAK1; 2 µM 0 | LCK; 2 µM 0 | LIMK1; 2 µM 0 | LIMK2; 2 µM 0 | LMTK2; 2 µM 0 | LYN; 2 µM 0 | MAP2K1; 2 µM 0 | MAP2K2; 2 µM 0 | MAP4K2; 2 µM 0

CC(C)NC[C@@H](C(=O)N1CCN(c2ncnc3c2[C@H](C)C[C@H]3O)CC1)c1ccc(Cl)cc1 [Ipatasertib]
inactive: ERN1; 10 µM 0 | FGFR1; 10 µM 0 | FGFR2; 10 µM 0 | FGFR3; 10 µM 0 | FGR; 10 µM 0 | FLT3; 10 µM 0 | FYN; 10 µM 0 | GSK3A; 10 µM 0 | HER2; 10 µM 0 | INSRR; 10 µM 0 | IRAK3; 10 µM 0 | JAK1; 10 µM 0 | LCK; 10 µM 0 | LIMK1; 10 µM 0 | LIMK2; 10 µM 0 | LMTK2; 10 µM 0 | LYN; 10 µM 0 | MAP2K1; 10 µM 0 | MAP2K2; 10 µM 0 | MAP4K2; 10 µM 0

CN(C)C(=O)c1cc2cnc(Nc3ccc(N4CCNCC4)cn3)nc2n1C1CCCC1 [Ribociclib hydrochloride]
inactive: FGFR1; 2.5 µM 0 | FGFR2; 2.5 µM 0 | FGFR3; 2.5 µM 0 | FGR; 2.5 µM 0 | FLT3; 2.5 µM 0 | FYN; 2.5 µM 0 | GSK3A; 2.5 µM 0 | HER2; 2.5 µM 0 | INSRR; 2.5 µM 0 | IRAK3; 2.5 µM 0 | JAK1; 2.5 µM 0 | LCK; 2.5 µM 0 | LIMK1; 2.5 µM 0 | LIMK2; 2.5 µM 0 | LMTK2; 2.5 µM 0 | LYN; 2.5 µM 0 | MAP2K1; 2.5 µM 0 | MAP2K2; 2.5 µM 0 | MAP4K2; 2.5 µM 0

COc1ccnc(C[S+]([O-])c2nc3cc(-n4cccc4)ccc3[nH]2)c1C (centres undefined) [Ilaprazole (sodium)]
inactive: ERN1; 10 µM 0 | FGFR1; 10 µM 0 | FGFR2; 10 µM 0 | FGFR3; 10 µM 0 | FGR; 10 µM 0 | FLT3; 10 µM 0 | FYN; 10 µM 0 | GSK3A; 10 µM 0 | HER2; 10 µM 0 | INSRR; 10 µM 0 | IRAK3; 10 µM 0 | JAK1; 10 µM 0 | LCK; 10 µM 0 | LIMK1; 10 µM 0 | LIMK2; 10 µM 0 | LMTK2; 10 µM 0 | LYN; 10 µM 0 | MAP2K1; 10 µM 0 | MAP2K2; 10 µM 0 | MAP4K2; 10 µM 0

CN(C)C(=N)NC(=N)N [Metformin (hydrochloride)]
inactive: ERN1; 10 µM 0 | FGFR1; 10 µM 0 | FGFR2; 10 µM 0 | FGFR3; 10 µM 0 | FGR; 10 µM 0 | FLT3; 10 µM 0 | FYN; 10 µM 0 | GSK3A; 10 µM 0 | HER2; 10 µM 0 | INSRR; 10 µM 0 | IRAK3; 10 µM 0 | JAK1; 10 µM 0 | LCK; 10 µM 0 | LIMK1; 10 µM 0 | LIMK2; 10 µM 0 | LMTK2; 10 µM 0 | LYN; 10 µM 0 | MAP2K1; 10 µM 0 | MAP2K2; 10 µM 0 | MAP4K2; 10 µM 0
